The results in this text go back to paper PMC12789588.

Sequences of proteins named here, by UniProt entry; tags and fusion partners are left off. Residues count along the entry.
UniProt Q64487, residues 21-1912: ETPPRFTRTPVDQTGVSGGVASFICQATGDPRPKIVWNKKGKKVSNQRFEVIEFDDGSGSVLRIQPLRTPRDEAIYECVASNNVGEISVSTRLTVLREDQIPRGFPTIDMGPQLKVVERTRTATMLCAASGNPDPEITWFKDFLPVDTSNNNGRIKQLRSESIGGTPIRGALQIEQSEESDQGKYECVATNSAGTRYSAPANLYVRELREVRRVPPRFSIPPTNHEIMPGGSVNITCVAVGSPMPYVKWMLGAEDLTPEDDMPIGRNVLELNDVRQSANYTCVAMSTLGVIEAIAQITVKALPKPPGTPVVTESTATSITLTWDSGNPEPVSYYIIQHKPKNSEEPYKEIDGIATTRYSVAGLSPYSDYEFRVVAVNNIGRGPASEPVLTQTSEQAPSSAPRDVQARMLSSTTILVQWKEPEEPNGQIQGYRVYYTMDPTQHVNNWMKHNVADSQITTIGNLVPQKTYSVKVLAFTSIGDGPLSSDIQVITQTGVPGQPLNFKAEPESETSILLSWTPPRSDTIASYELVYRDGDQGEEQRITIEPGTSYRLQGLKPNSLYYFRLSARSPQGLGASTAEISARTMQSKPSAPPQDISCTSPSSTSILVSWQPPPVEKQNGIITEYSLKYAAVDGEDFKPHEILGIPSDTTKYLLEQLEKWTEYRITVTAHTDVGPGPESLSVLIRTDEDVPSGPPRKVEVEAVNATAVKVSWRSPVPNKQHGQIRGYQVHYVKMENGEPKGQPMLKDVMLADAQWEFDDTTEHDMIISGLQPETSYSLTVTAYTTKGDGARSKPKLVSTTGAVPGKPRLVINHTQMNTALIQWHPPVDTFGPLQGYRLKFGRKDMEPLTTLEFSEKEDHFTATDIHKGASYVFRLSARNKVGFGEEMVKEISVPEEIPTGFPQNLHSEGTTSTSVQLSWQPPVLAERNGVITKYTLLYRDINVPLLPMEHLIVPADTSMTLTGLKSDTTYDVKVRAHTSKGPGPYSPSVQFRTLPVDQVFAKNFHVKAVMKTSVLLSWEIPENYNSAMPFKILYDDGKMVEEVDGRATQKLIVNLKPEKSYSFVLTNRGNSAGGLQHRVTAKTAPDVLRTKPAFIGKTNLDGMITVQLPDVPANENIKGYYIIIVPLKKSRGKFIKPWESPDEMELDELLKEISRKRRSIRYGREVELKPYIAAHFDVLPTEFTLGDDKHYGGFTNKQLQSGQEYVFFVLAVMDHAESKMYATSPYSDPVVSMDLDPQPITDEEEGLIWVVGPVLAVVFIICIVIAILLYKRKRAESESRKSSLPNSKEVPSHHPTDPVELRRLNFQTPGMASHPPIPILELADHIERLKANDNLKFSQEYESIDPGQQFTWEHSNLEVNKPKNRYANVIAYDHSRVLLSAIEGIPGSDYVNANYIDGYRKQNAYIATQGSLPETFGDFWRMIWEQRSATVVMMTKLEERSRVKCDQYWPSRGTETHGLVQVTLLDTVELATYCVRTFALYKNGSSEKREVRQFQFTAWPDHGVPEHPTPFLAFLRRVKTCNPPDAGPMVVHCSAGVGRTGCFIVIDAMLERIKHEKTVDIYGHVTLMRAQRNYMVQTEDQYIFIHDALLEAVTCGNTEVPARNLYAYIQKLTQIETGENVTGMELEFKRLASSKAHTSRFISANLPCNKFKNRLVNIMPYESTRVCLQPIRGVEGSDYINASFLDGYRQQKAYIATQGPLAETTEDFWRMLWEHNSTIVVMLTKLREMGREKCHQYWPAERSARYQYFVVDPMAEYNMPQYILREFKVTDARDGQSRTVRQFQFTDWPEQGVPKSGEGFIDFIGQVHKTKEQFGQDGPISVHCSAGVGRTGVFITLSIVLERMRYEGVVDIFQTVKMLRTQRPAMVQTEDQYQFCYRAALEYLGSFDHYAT

Results are given in words; binding and its absence hold for the method and conditions named. Binding seen in cells or lysates may run through a third protein. Some results given as binding are weak or reduced against the parent protein; the word gives no strength.

The assay deals with protein tyrosine phosphatase receptor delta (PTPRD), overexpressed in HEK293T cells (UniProt Q64487). Kind of assay: co-IP; MARCH2 and PTPRD both overexpressed in HEK293T cells; NP40 lysis with sonication; 1 mg lysate with anti-FLAG antibody, anti-MYC antibody or nonimmune IgG at 4 °C overnight; Protein A/G magnetic beads; five washes with lysis buffer; Western blot.

B1: membrane-associated RING finger protein 2 (MARCH2), overexpressed in HEK293T cells (enzyme, UniProt Q99M02 1-246)
chain: MTTGDCCHLPGSLCDCSSSPAFSKVVEATGLGPPQYVAQVTSRDGRLLSTVIRALDSQSDCPFCRICHEGANGENLLSPCGCTGTLGAVHKSCLEKWLSSSNTSYCELCHTEFAVEKRPRPLTEWLKDPGPRTEKRTLCCDMVCFVFITPLAAISGWLCLRGAQDHLRLHSRLEAVGLIALTIALFTIYVLWTLVSFRYHCQLYSEWRKTNQKVRLKIREADGSEDPHHSLLATGLLKKVAEETPV
Turning to B1, the binding entry was “binds”.
